These results are taken from article PMC5620068.

Amino acid sequences for entries named in this document (tags omitted).
UniProt Q92847: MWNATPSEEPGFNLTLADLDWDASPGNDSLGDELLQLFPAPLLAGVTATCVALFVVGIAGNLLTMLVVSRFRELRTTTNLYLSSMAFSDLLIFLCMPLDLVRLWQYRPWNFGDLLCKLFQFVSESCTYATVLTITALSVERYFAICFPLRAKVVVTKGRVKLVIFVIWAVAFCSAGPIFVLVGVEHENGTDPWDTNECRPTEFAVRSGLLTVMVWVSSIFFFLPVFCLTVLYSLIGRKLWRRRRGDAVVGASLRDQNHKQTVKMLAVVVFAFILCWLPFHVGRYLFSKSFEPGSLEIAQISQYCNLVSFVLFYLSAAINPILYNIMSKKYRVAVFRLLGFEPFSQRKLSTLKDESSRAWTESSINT

Results are given in words; binding and its absence hold for the method and conditions named. Binding seen in cells or lysates may run through a third protein. Some results given as binding are weak or reduced against the parent protein; the word gives no strength. For part of these data: Where a sequence is shown, tags or fusion partners need not be part of it.

Experiment [1] concerns the target T1, 3xFlag-tagged human melanocortin receptor accessory protein 2 (MRAP2-3Flag) (human) (UniProt Q96G30).
T1 sequence: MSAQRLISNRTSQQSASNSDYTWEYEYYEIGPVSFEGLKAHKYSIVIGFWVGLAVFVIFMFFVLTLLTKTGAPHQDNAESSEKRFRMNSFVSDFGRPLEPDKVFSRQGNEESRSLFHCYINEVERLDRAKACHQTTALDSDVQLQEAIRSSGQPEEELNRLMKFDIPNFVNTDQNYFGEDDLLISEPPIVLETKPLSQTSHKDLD
The experiment is described as follows: co-IP; HEK293T cells transfected with 3HA-GHSR1a and human MRAP2-3Flag; lysis in 0.1% n-dodecyl-β-maltoside in PBS; IP with anti-HA or anti-Flag and protein G dynabeads, 4 °C; western blot with anti-HA or anti-Flag; beads alone as control.

Experiment [2] deals with 3 hemagglutinin (HA)-tagged growth hormone secretagogue receptor 1a (3HA-GHSR1a) (UniProt Q92847). The description is as above.
The target of another experiment is 3HA-GHSR1a-LgBit (UniProt Q92847). The experiment is described as follows: split reporter; NanoBit assay in live CHO cells, fusions expressed from the weak HSV-TK promoter; luminescence read 5 min after adding the substrate.

For “3 hemagglutinin (HA)-tagged growth hormone secretagogue receptor 1a (3HA-GHSR1a) (from UniProt Q92847 1-366)”, the binding result in experiment [1] is “binds”.

B1: 3xFlag-tagged human melanocortin receptor accessory protein 2 (MRAP2-3Flag) (protein, UniProt Q96G30 1-205)
chain: MSAQRLISNRTSQQSASNSDYTWEYEYYEIGPVSFEGLKAHKYSIVIGFWVGLAVFVIFMFFVLTLLTKTGAPHQDNAESSEKRFRMNSFVSDFGRPLEPDKVFSRQGNEESRSLFHCYINEVERLDRAKACHQTTALDSDVQLQEAIRSSGQPEEELNRLMKFDIPNFVNTDQNYFGEDDLLISEPPIVLETKPLSQTSHKDLD
Regarding B1, the binding result in experiment [2] is recorded as “binds”.

B2: MRAP2-SmlBit (protein, UniProt Q96G30 1-205)
chain: MSAQRLISNRTSQQSASNSDYTWEYEYYEIGPVSFEGLKAHKYSIVIGFWVGLAVFVIFMFFVLTLLTKTGAPHQDNAESSEKRFRMNSFVSDFGRPLEPDKVFSRQGNEESRSLFHCYINEVERLDRAKACHQTTALDSDVQLQEAIRSSGQPEEELNRLMKFDIPNFVNTDQNYFGEDDLLISEPPIVLETKPLSQTSHKDLD
As for B2, the binding result in the experiment with 3HA-GHSR1a-LgBit is given as “binds”.
